Test results as given in patent US6544995B1, “Use of cysteine derivatives for preparing a medicine for treating pathologies resulting from the formation of heterotrimeric G protein” (Societe de Conseils de Recherches et d'Applications …, priority 1998, dated 2003).
At least one structure is not confirmed: it was looked up by name or label, or the drawing left a doubt.

System: adenylate cyclase
Settings: forskolin 10 μM, MCF-7 cells

SMILES: C=C[C@@]1(C)CC(=O)[C@]2(O)[C@@]3(C)[C@@H](O)CCC(C)(C)[C@@H]3[C@H](O)[C@H](OC(C)=O)[C@@]2(C)O1 [forskolin, reference compound]
- cyclic AMP level after activation of adenylate cyclase: very significant increase
